Measurements reported in PubChem BioAssay AID686937 (Drosophila RNAi Screening Center, 2013).
The deposit covers about 23,000 reagents; shown is an unselected part of those with a known target gene and a result. 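Reduced-secretion tags in replicate 1 do not always agree with the z-scores; no criterion for assigning the tags was given.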 Names joined by + are all predicted targets of the reagent. Not all columns of the deposit are shown. The record does not give: the amount of reagent.

Purpose: 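Genes whose loss weakens secretory pathway function in fly cells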 (primary screen)
Cells: Drosophila S2 cells expressing secreted horseradish peroxidase
Reagents: long dsRNA against Drosophila genes
Duration: about 5.5 days (5 days dsRNA, then 12 h reporter induction)
Challenge: reporter expression induced after 5 days of dsRNA, read 12 h later; inducer not stated
Detection: 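After 5 days of dsRNA and 12 h of reporter induction, medium peroxidase read by chemiluminescence and scored as per-plate z-score; higher values mean more reporter released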
Scale: z-score: higher = more reporter secreted into medium

What did the screen give for CG14275 [DRSC02379]?
z-score, replicate 1: 0.32

With Fam92 [DRSC02952], what does the deposit list?
z-score, replicate 1: 0.26

With Afti [DRSC16440], what does the deposit list?
z-score, replicate 1: 0.41

What is on record for 4E-T [DRSC17201]?
z-score, replicate 1: 0.26

With 4E-T [DRSC17208], what does the deposit list?
z-score, replicate 1: 0.31

With Cul2 [DRSC03710], what does the deposit list?
z-score, replicate 1: 0.29

What is on record for eIF2gamma + Su(var)3-9 [DRSC13081]?
z-score, replicate 1: -5.63; phenotype, replicate 1: reduced secretion

With eIF2gamma + Su(var)3-9 [DRSC16873], what was measured?
z-score, replicate 1: 0.42

What is on record for CG5455 [DRSC15805]?
z-score, replicate 1: 0.2

For mip120 [DRSC06960], what does the deposit list?
z-score, replicate 1: -0.2

Which result is listed for CG8157 [DRSC07085]?
z-score, replicate 1: 0.42

What is on record for CG8157 [DRSC21595]?
z-score, replicate 1: 0.81

How did the screen score CG15118 [DRSC06540]?
z-score, replicate 1: 0.07

What did the screen give for IFT20 + CG10395 [DRSC22660]?
z-score, replicate 1: 1.65

For sxc [DRSC04911], what does the deposit list?
z-score, replicate 1: -1.04

For AP-1sigma [DRSC15899], what does the deposit list?
z-score, replicate 1: -6.56; phenotype, replicate 1: reduced secretion

Reformatted: results already given.
{"Gene": "4E-T", "DRSC id": "DRSC17201", "z-score, replicate 1": 0.26}
{"Gene": "4E-T", "DRSC id": "DRSC17208", "z-score, replicate 1": 0.31}
